# Some of these results come from one statement about several compounds together. Some compounds share one range, which may span the group rather than tell each member.
# How the values were obtained:
# Format in all cases: in vivo
# Spodoptela litura = test: Test Example 1: artificial diet test on tobacco cutworm larvae; settings: 500 ppm, fourth-instar larvae, after 6 days
# Adoxophyes orana = test: Test Example 2: artificial diet test on summer fruit tortrix larvae; settings: 500 ppm, first-instar larvae, after 7 days
# Plutella xylostella = test: Test Example 9: cabbage test on diamondback, second-instar; settings: 500 ppm, 25° C., after five days
# Bemisia argentifolii = test: Test Example 10: spray test on silver leaf white fly on cabbage; settings: after seven days
# Culex pipiens pallens = test: Test Example 7: water treatment test on common mosquito larvae; settings: concentration of active ingredient 3.5 ppm in water; last-instar larvae; after one day
# Aphis gossypii = test: Test Example 3: spray test on cotton aphids on cucumber; settings: 500 ppm, first-instar larvae on cucumber, after 6 days
# Nilaparvata lugens = test: Test Example 4: spray test on brown rice planthopper on rice; settings: 500 ppm, first to second-instar larvae on rice, after 6 days
# Musca domestica = test: Test Example 5: filter paper test on houseflies; settings: 500 ppm, female adult houseflies, after 24 hours
# Blattalla germanica = test: Test Example 6: filter paper test on German cockroach; settings: 500 ppm, male adult German cockroach, after 6 days
SMILES,index number (mortality) (Spodoptela litura),index number (mortality) (Adoxophyes orana),index number (mortality) (Plutella xylostella),index number (mortality) (Culex pipiens pallens),index number (mortality) (Bemisia argentifolii; 200 ppm),also measured
"Brc1ccc(SC(C=CSc2ccccc2)=Nc2ccccc2)cc1 [(21), 4-Bromophenyl N-phenyl-3-(phenylthio)thioacrylimidate]",3 (mortality 80 to 99%),3 (mortality 80 to 99%),3 (mortality 80 to 99%),,,index number (mortality) (Bemisia argentifolii; 50 ppm): 3 (mortality 90 to 99%)
"Fc1cccc(N=C(C=CSc2ccccc2)Oc2ccccc2)c1 [(51), Phenyl N-(3-fluorophenyl)-3-(phenylthio)acrylimidate]",3 (mortality 80 to 99%),3 (mortality 80 to 99%),3 (mortality 80 to 99%),4 (mortality 91 to 100%),3 (mortality 90 to 99%),
"Brc1ccc(N=C(C=CSc2ccccc2)Oc2ccccc2)cc1 [(53), Phenyl N-(4-bromophenyl)-3-(phenylthio)acrylimidate]",3 (mortality 80 to 99%),3 (mortality 80 to 99%),3 (mortality 80 to 99%),4 (mortality 91 to 100%),3 (mortality 90 to 99%),
"CC(C)c1ccc(N=C(C=COc2ccccc2)Oc2ccccc2)cc1 [(74), Phenyl N-[4-(1-methylethyl)phenyl]-3-(phenoxy)acrylimidate]",3 (mortality 80 to 99%),3 (mortality 80 to 99%),3 (mortality 80 to 99%),4 (mortality 91 to 100%),,index number (surviving rate based on untreated check) (Aphis gossypii): 3 (surviving rate 1 to 10%); index number (surviving rate based on untreated check) (Nilaparvata lugens): 3 (surviving rate 1 to 10%); index number (mortality) (Musca domestica): 3 (mortality 70 to 99%); index number (mortality) (Blattalla germanica): 4 (mortality 100%)
"Ic1ccc(N=C(C=COc2ccccc2)Oc2ccccc2)cc1 [(80), Phenyl N-(4-iodophenyl)-3-(phenoxy)acrylimidate]",3 (mortality 80 to 99%),3 (mortality 80 to 99%),3 (mortality 80 to 99%),4 (mortality 91 to 100%),3 (mortality 90 to 99%),
"Brc1cccc(SC=CC(=Nc2ccccc2)Oc2ccccc2)c1 [(101), Phenyl 3-(3-bromophenylthio)-N-phenylacrylimidate]",3 (mortality 80 to 99%),3 (mortality 80 to 99%),3 (mortality 80 to 99%),,3 (mortality 90 to 99%),
"Fc1cccc(SC=CC(=Nc2ccccc2)Oc2ccccc2)c1 [(113), Phenyl 3-(3-fluorophenylthio)-N-phenylacrylimidate]",3 (mortality 80 to 99%),3 (mortality 80 to 99%),3 (mortality 80 to 99%),4 (mortality 91 to 100%),3 (mortality 90 to 99%),
"C=Cc1ccc(N=C(C=COc2ccccc2)Oc2ccccc2)cc1 [(157), Phenyl N-(4-vinylphenyl)-3-(phenoxy)acrylimidate]",3 (mortality 80 to 99%),3 (mortality 80 to 99%),3 (mortality 80 to 99%),4 (mortality 91 to 100%),,index number (surviving rate based on untreated check) (Aphis gossypii): 3 (surviving rate 1 to 10%); index number (surviving rate based on untreated check) (Nilaparvata lugens): 3 (surviving rate 1 to 10%); index number (mortality) (Musca domestica): 3 (mortality 70 to 99%); index number (mortality) (Blattalla germanica): 4 (mortality 100%)
"O=[N+]([O-])c1ccc(SC=CC(=Nc2ccccc2)SCc2ccccc2)cc1 [(225), Benzyl 3-(4-nitrophenylthio)-N-phenyl-thioacrylimidate]",,,,,3 (mortality 90 to 99%),
"FC(F)(F)c1ccc(SC=CC(=Nc2ccccc2)SCc2ccccc2)cc1 [(230), Benzyl N-phenyl-3-(4-trifluoromethylphenylthio)-thioacrylimidate]",,,,,3 (mortality 90 to 99%),
"COc1cccc(SC=CC(=Nc2ccccc2)SCc2ccccc2)c1 [(232), Benzyl 3-(3-methoxyphenylthio)-N-phenyl-thioacrylimidate]",,,,,3 (mortality 90 to 99%),
"COc1ccc(SC=CC(=Nc2ccccc2)SCc2ccccc2)cc1 [(234), Benzyl 3-(4-methoxyphenylthio)-N-phenyl-thioacrylimidate]",,,,,3 (mortality 90 to 99%),index number (mortality) (Musca domestica): 3 (mortality 70 to 99%)
"Clc1ccc(SC=CC(=Nc2ccccc2)SCc2ccccc2)c(Cl)c1 [(248), Benzyl 3-(2,4-dichlorophenylthio)-N-phenyl-thioacrylimidate]",,,3 (mortality 80 to 99%),,3 (mortality 90 to 99%),
"Clc1cc(Cl)cc(SC=CC(=Nc2ccccc2)SCc2ccccc2)c1 [(250), Benzyl 3-(3,5-dichlorophenylthio)-N-phenyl-thioacrylimidate]",,,,,3 (mortality 90 to 99%),
"Clc1ccc(SC=CC(=Nc2ccccc2)SCc2ccccc2)cc1Cl [(258), Benzyl 3-(3,4-dichlorophenylthio)-N-phenyl-thioacrylimidate]",,,,,3 (mortality 90 to 99%),
"COc1ccc(OC=CC(=Nc2ccc(C)c(C)c2)Oc2cccc(C)c2)cc1 [(296), 3-Methylphenyl N-(3,4-dimethylphenyl)-3-(4-methoxyphenoxy)acrylimidate]",,,,,3 (mortality 90 to 99%),
"Cc1cccc(OC(C=COc2ccc(Br)cc2)=Nc2ccc(C)c(C)c2)c1 [(298), 3-Methylphenyl 3-(4-bromophenoxy)-N-(3,4-dimethylphenyl)acrylimidate]",,,,,3 (mortality 90 to 99%),
"Cc1cccc(OC(C=COc2ccc(F)c(F)c2)=Nc2ccc(C)c(C)c2)c1 [(299), 3-Methylphenyl 3-(3,4-difluorophenoxy)-N-(3,4-dimethylphenyl)acrylimidate]",,,,,3 (mortality 90 to 99%),
"Cc1cccc(OC(C=COc2ccc(C)c(C)c2)=Nc2ccc(C)c(C)c2)c1 [(301), 3-Methylphenyl N-(3,4-dimethylphenyl)-3-(3,4-dimethylphenoxy)acrylimidate]",,,,,3 (mortality 90 to 99%),
"Cc1ccc(N=C(C=CSc2ccc(C)cc2)SCC2CCCCC2)cc1 [(357), Cyclohexylmethyl N-(4-methylphenyl)-3-(4-methylphenylthio)-thioacrylimidate]",,,,,3 (mortality 90 to 99%),
"Cc1ccc(N=C(C=CSc2ccc(F)cc2)SCC(C)C)cc1 [(431), Isobutyl 3-(4-fluorophenylthio)-N-(4-methylphenyl)thioacrylimidate]",,,,,,index number (mortality) (Bemisia argentifolii; 12.5 ppm): 3 (mortality 90 to 99%)
"Clc1ccc(-c2ccc(N=C(C=COc3ccccc3)Oc3ccccc3)cc2)cc1 [(505), Phenyl N-[4-(4-chlorophenyl)phenyl]-3-phenoxyacrylimidate]",3 (mortality 80 to 99%),3 (mortality 80 to 99%),3 (mortality 80 to 99%),4 (mortality 91 to 100%),,index number (surviving rate based on untreated check) (Aphis gossypii): 3 (surviving rate 1 to 10%); index number (surviving rate based on untreated check) (Nilaparvata lugens): 3 (surviving rate 1 to 10%); index number (mortality) (Musca domestica): 3 (mortality 70 to 99%); index number (mortality) (Blattalla germanica): 4 (mortality 100%)

# From US8084644B2, “Iminopropene compound and use thereof” (Sumitomo Chemical Company, Limited, priority 2005, dated 2011)
